# Assay results from patent US20030224453A1, “Structural models for cytoplasmic domains of transmembrane receptors” (priority 1998, published 2003).
# Legend:
# [1] = molecular target: Filamin of mouse C2C12 myotubes (mouse); test: affinity chromatography: model protein on Ni2+ resin; lysate of mouse C2C12 myotubes
# [2] = molecular target: Talin of mouse C2C12 myotubes (mouse); test: as above
binding [1],binding [2],Binder
binds,,G4-β7 cytoplasmic domain model protein (designed binder) GSSHHHHHHSSGLVPRGSHMKLEALEGRLDALEGKLEALEGKLDALEGGGGKLSVEIYDRREYSRFEKEQQQLNWKQDSNPLYKSAITTTINPRFQEADSPTL
,binds,G1-β1D cytoplasmic domain model protein (designed binder) GSSHHHHHHSSGLVPRGSHMKLEALEGRLDALEGKLEALEGKLDALEGKLLMIIHDRREFAKFEKEKMNAKWDTQENPIYKSPINNFKNPNYGRKAGL

# The remaining lines, values behind:
Binder,binding [1],binding [2]
G1-β7 cytoplasmic domain model protein (designed binder) GSSHHHHHHSSGLVPRGSHMKLEALEGRLDALEGKLEALEGKLDALEGKLSVEIYDRREYSRFEKEQQQLNWKQDSNPLYKSAITTTINPRFQEADSPTL,binds,
G4-β1D cytoplasmic domain model protein (designed binder) GSSHHHHHHSSGLVPRGSHMKLEALEGRLDALEGKLEALEGKLDALEGGGGKLLMIIHDRREFAKFEKEKMNAKWDTQENPIYKSPINNFKNPNYGRKAGL,,binds

# Results are given in words; binding and its absence hold for the method and conditions named. A result given as binding can be weak or reduced; the word gives no strength.
